Results are given in words; binding and its absence hold for the method and conditions named. For some assays here: Binding seen in cells or lysates may run through a third protein. Some binding calls cover weakened binding; strength is not graded here. For some assays here: Where a sequence is shown, tags or fusion partners need not be part of it.
Tests used:
[1] = molecular target: T1, pBiFC-VN155 (I152L) GEMININ coiled-coil region (aa 82-160) (human) (UniProt O75496); experiment: split reporter; BiFC with Venus halves in co-transfected COS-1 cells: SIX3/SIX6 constructs in pBiFC-VC155, GEMININ constructs in pBiFC-VN155 (I152L); fixed 24 h after transfection; confocal images; BiFC signal of about 100 single cells plotted against immunofluorescence (slope m)
T1 sequence: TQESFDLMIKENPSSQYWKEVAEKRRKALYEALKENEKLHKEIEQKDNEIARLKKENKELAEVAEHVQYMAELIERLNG

[2] = molecular target: T2, pBiFC-VN155 (I152L) GEMININ (full-length) (human) (UniProt O75496); experiment: as above
T2 sequence: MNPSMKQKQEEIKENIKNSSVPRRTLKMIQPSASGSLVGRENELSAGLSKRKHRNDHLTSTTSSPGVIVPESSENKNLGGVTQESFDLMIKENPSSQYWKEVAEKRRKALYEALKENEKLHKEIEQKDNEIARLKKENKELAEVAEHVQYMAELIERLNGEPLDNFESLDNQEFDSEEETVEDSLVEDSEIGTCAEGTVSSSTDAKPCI

[3] = molecular target: T3, MBP-fused full-length SIX3 (SIX3 without aa 1-78) (human) (UniProt O95343); experiment: ITC; Nano ITC LV, 25 °C, PBS-TCEP with 300 mM NaCl (results: 437 mM NaCl); 200 μM GEMININ (or its coiled-coil region) in the syringe, 10 μM MBPSIX3 (or MBP alone) in the cell; independent binding sites model; GEMININ-to-MBP control subtracted; both purified
T3 sequence: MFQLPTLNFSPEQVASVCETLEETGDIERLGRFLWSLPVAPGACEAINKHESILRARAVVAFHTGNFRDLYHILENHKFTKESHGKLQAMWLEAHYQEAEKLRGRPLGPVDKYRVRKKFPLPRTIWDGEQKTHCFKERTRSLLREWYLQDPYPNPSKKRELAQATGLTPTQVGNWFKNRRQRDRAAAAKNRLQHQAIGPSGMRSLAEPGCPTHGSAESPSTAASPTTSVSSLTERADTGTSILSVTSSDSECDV

B1: pBiFC-VC155 SIX3 (SIX3 without aa 1-78, named full-length) (domain or fragment, UniProt O95343 79-332)
chain: MFQLPTLNFSPEQVASVCETLEETGDIERLGRFLWSLPVAPGACEAINKHESILRARAVVAFHTGNFRDLYHILENHKFTKESHGKLQAMWLEAHYQEAEKLRGRPLGPVDKYRVRKKFPLPRTIWDGEQKTHCFKERTRSLLREWYLQDPYPNPSKKRELAQATGLTPTQVGNWFKNRRQRDRAAAAKNRLQHQAIGPSGMRSLAEPGCPTHGSAESPSTAASPTTSVSSLTERADTGTSILSVTSSDSECDV
binding [1]: no binding
binding [2]: binds

B2: pBiFC-VC155 SIX6 (full-length) (protein, UniProt O95475 1-246)
chain: MFQLPILNFSPQQVAGVCETLEESGDVERLGRFLWSLPVAPAACEALNKNESVLRARAIVAFHGGNYRELYHILENHKFTKESHAKLQALWLEAHYQEAEKLRGRPLGPVDKYRVRKKFPLPRTIWDGEQKTHCFKERTRHLLREWYLQDPYPNPSKKRELAQATGLTPTQVGNWFKNRRQRDRAAAAKNRLQQQVLSQGSGRALRAEGDGTPEVLGVATSPAASLSSKAATSAISITSSDSECDI
binding [1]: no binding
binding [2]: binds

B3: GEMININ coiled-coil region (aa 82-160), purified (domain or fragment, UniProt O75496 82-160)
chain: TQESFDLMIKENPSSQYWKEVAEKRRKALYEALKENEKLHKEIEQKDNEIARLKKENKELAEVAEHVQYMAELIERLNG
binding [3]: no binding
